The target in assay [1] is eYFP-WRN Phe1074-Cys1367 variant (human) (UniProt Q14191). In words: co-IP; eYFP-WRN variants precipitated from HEK293 extracts 24 h after transfection with the anti-eYFP antibody on magnetic beads (lysis buffer with Benzonase and RNase A); Western blot for DNA-PKc, KU86, KU70, PARP1; cells with or without 40 uM hydroquinone. On the technique in general: A western blot detects proteins with antibodies after separation by electrophoresis.

Protein sequences, listed by entry. Tags and fused reporters are not part of them. Lines headed by an entry give the natural chain unless they say otherwise; changes in a name come on top.
UniProt Q14191: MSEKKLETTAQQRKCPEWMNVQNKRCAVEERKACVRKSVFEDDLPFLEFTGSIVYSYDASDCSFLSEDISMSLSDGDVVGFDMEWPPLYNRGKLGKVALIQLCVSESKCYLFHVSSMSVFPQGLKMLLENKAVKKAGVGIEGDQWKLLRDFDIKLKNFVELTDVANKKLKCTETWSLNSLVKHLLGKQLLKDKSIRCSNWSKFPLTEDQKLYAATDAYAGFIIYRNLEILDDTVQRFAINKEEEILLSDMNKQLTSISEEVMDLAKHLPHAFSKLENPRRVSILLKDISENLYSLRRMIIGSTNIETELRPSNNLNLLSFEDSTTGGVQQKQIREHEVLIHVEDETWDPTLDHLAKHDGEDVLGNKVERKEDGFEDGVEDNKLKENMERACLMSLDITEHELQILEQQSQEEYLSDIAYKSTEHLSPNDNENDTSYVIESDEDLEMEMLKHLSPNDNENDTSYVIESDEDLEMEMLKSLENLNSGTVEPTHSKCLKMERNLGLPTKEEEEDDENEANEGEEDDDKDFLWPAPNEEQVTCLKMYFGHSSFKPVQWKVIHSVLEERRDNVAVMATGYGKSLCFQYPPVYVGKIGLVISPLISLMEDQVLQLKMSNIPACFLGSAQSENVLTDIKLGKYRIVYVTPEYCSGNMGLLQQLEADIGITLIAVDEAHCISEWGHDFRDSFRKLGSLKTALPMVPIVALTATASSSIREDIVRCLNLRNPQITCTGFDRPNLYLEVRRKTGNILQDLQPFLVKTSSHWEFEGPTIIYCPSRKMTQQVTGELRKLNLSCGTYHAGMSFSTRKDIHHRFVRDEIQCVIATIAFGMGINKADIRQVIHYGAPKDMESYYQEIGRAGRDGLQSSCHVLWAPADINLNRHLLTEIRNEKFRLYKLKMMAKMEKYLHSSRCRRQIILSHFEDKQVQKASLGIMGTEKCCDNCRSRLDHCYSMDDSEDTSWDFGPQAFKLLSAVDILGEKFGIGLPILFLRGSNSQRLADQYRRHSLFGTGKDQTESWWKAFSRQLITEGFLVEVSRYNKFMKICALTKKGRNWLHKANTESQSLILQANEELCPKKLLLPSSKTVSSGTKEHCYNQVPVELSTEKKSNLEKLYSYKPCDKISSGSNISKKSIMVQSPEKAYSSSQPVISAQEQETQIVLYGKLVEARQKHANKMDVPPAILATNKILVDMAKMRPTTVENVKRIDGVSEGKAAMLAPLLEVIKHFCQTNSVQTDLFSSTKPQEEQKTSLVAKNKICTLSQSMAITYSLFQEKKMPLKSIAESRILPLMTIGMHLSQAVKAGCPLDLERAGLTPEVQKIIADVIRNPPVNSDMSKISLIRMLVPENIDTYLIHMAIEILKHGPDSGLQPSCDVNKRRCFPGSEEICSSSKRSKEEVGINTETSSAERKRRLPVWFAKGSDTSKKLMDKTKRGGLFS
UniProt P78527: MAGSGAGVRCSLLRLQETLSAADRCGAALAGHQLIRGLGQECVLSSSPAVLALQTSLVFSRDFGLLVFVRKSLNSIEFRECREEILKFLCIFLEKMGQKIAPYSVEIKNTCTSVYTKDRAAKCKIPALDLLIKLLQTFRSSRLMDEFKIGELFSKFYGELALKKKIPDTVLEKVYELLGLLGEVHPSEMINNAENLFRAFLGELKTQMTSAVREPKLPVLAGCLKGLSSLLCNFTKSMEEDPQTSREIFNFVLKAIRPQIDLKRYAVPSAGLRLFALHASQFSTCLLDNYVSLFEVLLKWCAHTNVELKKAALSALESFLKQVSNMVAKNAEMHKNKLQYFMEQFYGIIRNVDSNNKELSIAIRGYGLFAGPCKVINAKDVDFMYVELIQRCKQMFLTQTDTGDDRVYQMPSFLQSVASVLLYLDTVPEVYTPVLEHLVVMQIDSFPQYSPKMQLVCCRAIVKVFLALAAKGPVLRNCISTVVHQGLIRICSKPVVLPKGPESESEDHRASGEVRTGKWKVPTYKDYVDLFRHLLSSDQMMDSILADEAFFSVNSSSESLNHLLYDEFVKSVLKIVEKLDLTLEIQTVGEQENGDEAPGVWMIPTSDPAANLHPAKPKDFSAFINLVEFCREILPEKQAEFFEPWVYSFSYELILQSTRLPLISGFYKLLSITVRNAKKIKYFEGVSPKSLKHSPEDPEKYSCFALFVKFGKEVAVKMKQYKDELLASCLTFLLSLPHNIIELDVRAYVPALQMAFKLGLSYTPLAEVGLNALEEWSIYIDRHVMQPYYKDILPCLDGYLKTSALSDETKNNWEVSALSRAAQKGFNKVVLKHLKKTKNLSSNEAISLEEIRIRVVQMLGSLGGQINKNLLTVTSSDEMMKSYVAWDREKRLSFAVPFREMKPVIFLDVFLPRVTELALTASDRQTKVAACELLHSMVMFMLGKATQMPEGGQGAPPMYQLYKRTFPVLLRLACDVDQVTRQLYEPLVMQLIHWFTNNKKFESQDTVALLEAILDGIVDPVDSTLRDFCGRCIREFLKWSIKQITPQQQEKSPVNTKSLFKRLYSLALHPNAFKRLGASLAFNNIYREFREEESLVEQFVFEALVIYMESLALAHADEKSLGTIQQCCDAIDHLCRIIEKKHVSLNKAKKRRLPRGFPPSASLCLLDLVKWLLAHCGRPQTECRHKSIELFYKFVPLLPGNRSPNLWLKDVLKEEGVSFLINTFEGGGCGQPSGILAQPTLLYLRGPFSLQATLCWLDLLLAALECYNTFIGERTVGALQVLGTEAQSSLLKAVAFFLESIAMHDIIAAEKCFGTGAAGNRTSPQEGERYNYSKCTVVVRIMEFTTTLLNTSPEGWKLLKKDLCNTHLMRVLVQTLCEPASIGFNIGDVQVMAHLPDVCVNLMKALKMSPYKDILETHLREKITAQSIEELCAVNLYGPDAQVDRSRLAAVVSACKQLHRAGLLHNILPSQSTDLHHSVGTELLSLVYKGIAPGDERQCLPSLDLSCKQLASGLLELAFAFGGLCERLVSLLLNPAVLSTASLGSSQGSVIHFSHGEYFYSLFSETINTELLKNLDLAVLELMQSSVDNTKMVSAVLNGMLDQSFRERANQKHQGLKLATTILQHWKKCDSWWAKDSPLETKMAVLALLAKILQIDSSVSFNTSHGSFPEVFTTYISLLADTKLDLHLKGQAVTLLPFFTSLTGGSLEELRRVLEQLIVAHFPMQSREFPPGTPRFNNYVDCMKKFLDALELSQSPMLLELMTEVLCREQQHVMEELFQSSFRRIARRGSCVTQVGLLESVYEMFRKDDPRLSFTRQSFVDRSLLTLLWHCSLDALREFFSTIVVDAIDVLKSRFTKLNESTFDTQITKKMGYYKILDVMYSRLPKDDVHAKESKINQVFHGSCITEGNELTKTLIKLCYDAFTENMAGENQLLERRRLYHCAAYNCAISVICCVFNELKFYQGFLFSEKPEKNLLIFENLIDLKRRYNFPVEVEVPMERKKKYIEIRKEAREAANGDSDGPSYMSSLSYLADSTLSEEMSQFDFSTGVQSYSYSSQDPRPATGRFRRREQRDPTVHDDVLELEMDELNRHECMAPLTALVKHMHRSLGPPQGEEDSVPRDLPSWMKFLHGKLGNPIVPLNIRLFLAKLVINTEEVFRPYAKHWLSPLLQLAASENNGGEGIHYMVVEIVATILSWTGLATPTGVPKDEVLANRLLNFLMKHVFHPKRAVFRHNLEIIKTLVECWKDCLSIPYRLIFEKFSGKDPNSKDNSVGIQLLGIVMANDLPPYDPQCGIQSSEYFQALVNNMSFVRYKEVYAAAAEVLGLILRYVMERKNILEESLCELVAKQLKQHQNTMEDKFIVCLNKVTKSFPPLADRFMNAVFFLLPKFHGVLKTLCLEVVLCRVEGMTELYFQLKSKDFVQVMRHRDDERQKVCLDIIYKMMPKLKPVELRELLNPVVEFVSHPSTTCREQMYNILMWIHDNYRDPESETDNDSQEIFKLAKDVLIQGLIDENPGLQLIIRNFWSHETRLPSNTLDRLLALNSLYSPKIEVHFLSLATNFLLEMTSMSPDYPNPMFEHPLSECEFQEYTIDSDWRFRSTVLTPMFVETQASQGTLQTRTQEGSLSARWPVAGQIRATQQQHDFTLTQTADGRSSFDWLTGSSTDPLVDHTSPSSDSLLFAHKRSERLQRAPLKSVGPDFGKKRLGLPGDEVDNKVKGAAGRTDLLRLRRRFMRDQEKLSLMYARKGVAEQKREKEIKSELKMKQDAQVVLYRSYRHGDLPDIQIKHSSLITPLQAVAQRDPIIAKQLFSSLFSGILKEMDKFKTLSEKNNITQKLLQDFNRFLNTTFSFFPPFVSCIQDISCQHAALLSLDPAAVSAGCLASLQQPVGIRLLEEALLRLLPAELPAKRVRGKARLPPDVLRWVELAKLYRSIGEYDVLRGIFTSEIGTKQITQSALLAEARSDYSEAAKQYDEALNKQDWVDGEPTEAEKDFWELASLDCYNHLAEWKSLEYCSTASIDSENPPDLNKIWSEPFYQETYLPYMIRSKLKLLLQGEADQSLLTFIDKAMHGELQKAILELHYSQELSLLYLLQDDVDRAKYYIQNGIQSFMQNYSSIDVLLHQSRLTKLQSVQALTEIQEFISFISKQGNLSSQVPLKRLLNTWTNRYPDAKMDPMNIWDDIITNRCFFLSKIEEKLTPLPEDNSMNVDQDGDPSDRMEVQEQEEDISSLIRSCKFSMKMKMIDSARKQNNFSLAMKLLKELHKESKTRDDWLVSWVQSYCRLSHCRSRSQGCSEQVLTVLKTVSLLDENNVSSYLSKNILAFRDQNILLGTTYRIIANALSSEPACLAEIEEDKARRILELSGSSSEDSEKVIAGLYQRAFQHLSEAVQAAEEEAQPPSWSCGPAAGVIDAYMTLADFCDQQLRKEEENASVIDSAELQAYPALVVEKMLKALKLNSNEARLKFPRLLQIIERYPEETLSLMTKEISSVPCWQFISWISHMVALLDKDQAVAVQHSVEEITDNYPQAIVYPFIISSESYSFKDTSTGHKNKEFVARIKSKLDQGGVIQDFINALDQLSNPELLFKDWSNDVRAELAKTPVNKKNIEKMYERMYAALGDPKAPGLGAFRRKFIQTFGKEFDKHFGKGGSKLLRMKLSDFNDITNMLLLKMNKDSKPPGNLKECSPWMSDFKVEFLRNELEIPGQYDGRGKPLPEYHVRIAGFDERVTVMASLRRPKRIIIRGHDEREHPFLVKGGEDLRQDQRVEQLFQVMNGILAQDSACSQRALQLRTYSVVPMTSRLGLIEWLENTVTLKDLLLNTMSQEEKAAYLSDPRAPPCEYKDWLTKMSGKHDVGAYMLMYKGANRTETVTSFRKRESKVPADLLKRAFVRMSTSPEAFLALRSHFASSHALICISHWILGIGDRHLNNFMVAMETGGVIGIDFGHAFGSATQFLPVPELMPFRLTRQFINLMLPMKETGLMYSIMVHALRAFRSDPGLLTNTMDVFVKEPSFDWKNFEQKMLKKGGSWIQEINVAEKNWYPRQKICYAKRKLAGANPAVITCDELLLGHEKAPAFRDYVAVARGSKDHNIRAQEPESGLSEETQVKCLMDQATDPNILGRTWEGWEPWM
UniProt P09874: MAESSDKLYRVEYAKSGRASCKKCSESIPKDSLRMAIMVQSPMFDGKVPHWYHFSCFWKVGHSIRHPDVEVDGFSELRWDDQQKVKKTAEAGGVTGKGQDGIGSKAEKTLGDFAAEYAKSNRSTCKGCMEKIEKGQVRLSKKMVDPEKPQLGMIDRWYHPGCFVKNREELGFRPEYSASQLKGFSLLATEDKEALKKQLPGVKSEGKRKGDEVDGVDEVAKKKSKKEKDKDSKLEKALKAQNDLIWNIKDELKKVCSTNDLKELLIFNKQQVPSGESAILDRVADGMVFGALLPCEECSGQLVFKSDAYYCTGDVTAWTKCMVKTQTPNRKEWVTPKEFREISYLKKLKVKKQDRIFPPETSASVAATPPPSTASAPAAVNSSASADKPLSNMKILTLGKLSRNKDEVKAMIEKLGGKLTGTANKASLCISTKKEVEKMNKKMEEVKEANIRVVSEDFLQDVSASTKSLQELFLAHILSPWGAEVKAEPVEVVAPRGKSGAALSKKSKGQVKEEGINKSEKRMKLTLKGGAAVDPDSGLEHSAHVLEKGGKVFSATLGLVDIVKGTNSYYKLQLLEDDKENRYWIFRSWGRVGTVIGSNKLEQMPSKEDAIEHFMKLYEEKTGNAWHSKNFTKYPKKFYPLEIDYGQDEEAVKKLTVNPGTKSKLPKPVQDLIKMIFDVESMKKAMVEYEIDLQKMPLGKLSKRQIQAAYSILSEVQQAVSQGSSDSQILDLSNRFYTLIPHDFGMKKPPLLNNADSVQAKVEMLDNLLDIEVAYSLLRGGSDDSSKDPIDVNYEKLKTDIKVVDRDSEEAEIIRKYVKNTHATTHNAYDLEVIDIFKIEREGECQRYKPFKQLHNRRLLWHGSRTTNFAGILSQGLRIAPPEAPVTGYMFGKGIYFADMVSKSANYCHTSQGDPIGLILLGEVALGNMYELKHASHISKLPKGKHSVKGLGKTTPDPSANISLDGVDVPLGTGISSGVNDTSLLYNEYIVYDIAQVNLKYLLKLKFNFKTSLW

Assay [2] deals with eYFP-WRN(F-R) (human) (UniProt Q14191). Described as above.
Assay [3] deals with eYFP-WRN(L-C) (human) (UniProt Q14191). The assay is described as above.
In assay [4] the target is eYFP-WRN Leu1074-Arg1367 variant (human) (UniProt Q14191). The description is as above.
In assay [5] the target is eYFP-WRN(F-R) (human) (UniProt Q14191). In words: co-IP; eYFP-WRN(L-C) and eYFP-WRN(F-R) precipitated from transfected WRN-deficient WS fibroblasts AG11395B with an antibody against YFP and magnetic beads, 2 h in a cold room; no Benzonase or RNase A in the lysis buffer (50 mM Tris-HCl pH 8.0, 150 mM NaCl, 1.0% NP-40, 0.1% SDS, 0.5% sodium deoxycholate); Western blot.
Assay [6] addresses eYFP-WRN(L-C) (human) (UniProt Q14191). The description is as above.

These results are taken from publication PMC5349866.

No constants are given. Whether binding was seen depends on the method and setting. In cells and extracts the contact can be indirect. Some binding calls cover weakened binding; strength is not graded here.

Regarding “DNA-dependent protein kinase catalytic subunit (from UniProt P78527 1-4128)”, the binding result in assay [1] is listed as “binds”; in assay [2], “binds”; in assay [3], “binds weakly”; in assay [4] it was “binds”; in assay [5], “binds”; in assay [6], “binds weakly”.
For “Poly(ADP-ribose) polymerase 1 (from UniProt P09874 1-1014)”, the binding result was “binds” in assay [1]; “binds” in assay [2]; “binds” in assay [3]; “binds” in assay [4]; “binds” in assay [5]; “binds weakly” in assay [6].
